PubChem BioAssay AID1259405, NCATS | 2018

Assay: 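Knock-downs that lift recombinant protein yield in hamster ovary cells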 (primary screen)
Cells: Chinese hamster CHO-K1 ovary cells with stable secreted eGFP expression
Reagents: single siRNA against mouse genes, 0.8 pmol siRNA per well (2 µl of 400 nM stock)
Duration: 3 days
Measurement: 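Per-well intracellular GFP measured by laser scanning cytometry, plus viability from ATP luminescence, each relative to plate median of non-targeting control wells, in %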
Scale: GFP, % of control: higher = more GFP per well, higher productivity; viability (ATP), % of control: higher = more viable cells (more ATP)
Rule for the call: 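Called active when intracellular GFP, relative to negative control, is at or above 120%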
Here is an unselected part of about 50,000 reagents. About 4,000 of them (8%) count as active. 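Mouse siRNA library applied to hamster cells; one well for each siRNA.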

no.	gene	PubChem SID	GFP, % of control	viability (ATP), % of control	Call
1	Ago3	SID363553944	76.5	47.7	inactive
2	Ago3	SID363561901	71.4	60	inactive
3	Ago3	SID363565639	107	86.7	inactive
4	Klk1	SID363547397	88.6	76.8	inactive
5	Klk1	SID363558166	122	74.1	active
6	Klk1	SID363559924	78.9	85.9	inactive
7	H2-Aa	SID363553667	73.5	60	inactive
8	H2-Aa	SID363561624	35.4	35.8	inactive
9	H2-Aa	SID363565362	30.7	27	inactive
10	Sh3kbp1	SID363541794	56.2	49.1	inactive
11	Sh3kbp1	SID363553386	69.7	67.7	inactive
12	Sh3kbp1	SID363566710	75.4	68.1	inactive
13	Klhdc8a	SID363542902	72.9	53.8	inactive
14	Klhdc8a	SID363546419	27.6	30.9	inactive
15	Klhdc8a	SID363548175	110	93.4	inactive
16	Trim10	SID363572482	134	93.2	active
17	Trim10	SID363577762	80.8	80.6	inactive
18	Trim10	SID363581986	82.2	116	inactive
19	Trmt10a	SID363546037	49.7	70.8	inactive
20	Trmt10a	SID363549550	60.3	57.9	inactive
21	Trmt10a	SID363563356	70	40.3	inactive
22	Ptprs	SID363575052	76.1	70.2	inactive
23	Ptprs	SID363580684	73.2	76.8	inactive
24	Ptprs	SID363582796	80.5	79.4	inactive
25	Bbln	SID363540786	128	99.7	active
26	Bbln	SID363543237	69.4	70	inactive
27	Bbln	SID363552730	84.7	57.2	inactive
28	Gtpbp4	SID363570182	93.5	52.6	inactive
29	Gtpbp4	SID363576518	132	83.7	active
30	Gtpbp4	SID363579686	71.9	56.7	inactive
31	Cdrt4	SID363540673	69.2	67.8	inactive
32	Cdrt4	SID363543124	74	86.2	inactive
33	Cdrt4	SID363552617	40.1	55.4	inactive
34	Zfp770	SID363552276	62.1	64.8	inactive
35	Zfp770	SID363585412	103	97.3	inactive
36	Zfp770	SID363585763	108	111	inactive
37	Stard10	SID363545785	79.6	62.1	inactive
38	Stard10	SID363549298	73.1	81.4	inactive
39	Stard10	SID363563104	48.4	41.1	inactive
40	Arap1	SID363546124	47.7	83	inactive
41	Arap1	SID363549637	83.4	88.4	inactive
42	Arap1	SID363563443	42.9	47.4	inactive
43	Hnrnpa2b1	SID363554051	91.7	79.4	inactive
44	Hnrnpa2b1	SID363562008	68.9	57	inactive
45	Hnrnpa2b1	SID363565746	104	45.3	inactive
46	Ang3	SID363546648	105	74.5	inactive
47	Ang3	SID363548404	66.3	64.5	inactive
48	Ang3	SID363560582	90.4	110	inactive
49	Ubxn4	SID363556789	90.5	71.8	inactive
50	Ubxn4	SID363563693	72.6	81.3	inactive
51	Ubxn4	SID363587239	100	133	inactive
52	Get1	SID363556700	59.6	52.4	inactive
53	Get1	SID363563604	82.4	76.5	inactive
54	Get1	SID363587150	68.3	96.2	inactive
55	St6gal1	SID363570502	84.3	60.1	inactive
56	St6gal1	SID363579302	67.2	83.2	inactive
57	St6gal1	SID363583174	88.9	79.3	inactive
58	Il20ra	SID363568859	120	106	active
59	Il20ra	SID363576251	83.7	90	inactive
60	Il20ra	SID363579067	50.9	59.8	inactive
61	Nradd	SID363544561	181	57.4	active
62	Nradd	SID363550889	106	86.1	inactive
63	Nradd	SID363557438	26.9	11.9	inactive
64	Tbk1	SID363571072	96.3	78.8	inactive
65	Tbk1	SID363571424	64.3	59.9	inactive
66	Tbk1	SID363571776	73.8	72.5	inactive
67	Slc34a1	SID363574607	106	118	inactive
68	Slc34a1	SID363575663	60.6	27.5	inactive
69	Slc34a1	SID363580239	95.9	90.4	inactive
70	Abt1	SID363542967	100	53.8	inactive
71	Abt1	SID363546484	122	76.1	active
72	Abt1	SID363548240	75.9	80.8	inactive
73	Pold2	SID363569290	104	90.7	inactive
74	Pold2	SID363583722	73.8	80.8	inactive
75	Kifc2	SID363572236	149	123	active
76	Kifc2	SID363573996	84.8	47.3	inactive
77	Ap3b1	SID363553850	68.8	92.9	inactive
78	Ap3b1	SID363561807	42.6	55.8	inactive
79	Ap3b1	SID363565545	59.3	72.2	inactive
80	Bak1	SID363572193	88.9	81.3	inactive
81	Bak1	SID363573953	80.4	53.2	inactive
82	Cldn4	SID363572572	44.7	55.3	inactive
83	Cldn4	SID363577852	69.8	66.3	inactive
84	Cldn4	SID363582076	59	77.6	inactive
85	Aspn	SID363544032	115	87.4	inactive
86	Aspn	SID363550360	91.7	60.4	inactive
87	Aspn	SID363556909	111	96.6	inactive
88	Guca2a	SID363581646	59.1	65.6	inactive
89	Guca2a	SID363589140	93.4	73.2	inactive
90	Or2t1	SID363554137	37.6	52.5	inactive
91	Or2t1	SID363567584	109	68.5	inactive
92	Or2t1	SID363584941	49.4	99	inactive
93	Accs	SID363545406	117	85.7	inactive
94	Accs	SID363548919	82.9	78.8	inactive
95	Accs	SID363562725	33.1	58	inactive
96	Sall3	SID363573234	74	77	inactive
97	Sall3	SID363588473	44.1	42.5	inactive
98	Cd151	SID363541281	67.5	61.4	inactive
99	Cd151	SID363555908	53.1	61.1	inactive
100	Cd151	SID363566197	66.4	58.9	inactive
101	Or51a43	SID363554160	46.7	58.2	inactive
102	Or51a43	SID363567607	148	69	active
103	Or51a43	SID363584964	50	80	inactive
104	Bcl2l2	SID363572239	57	74.5	inactive
105	Bcl2l2	SID363573999	106	95.3	inactive
106	Axin1	SID363546607	87.9	80.8	inactive
107	Axin1	SID363548363	87.5	70.9	inactive
108	Axin1	SID363560541	105	115	inactive

Active calls (from the list above):
gene	PubChem SID	GFP, % of control	viability (ATP), % of control	Call
Klk1	SID363558166	122	74.1	active
Trim10	SID363572482	134	93.2	active
Bbln	SID363540786	128	99.7	active
Gtpbp4	SID363576518	132	83.7	active
Il20ra	SID363568859	120	106	active
Nradd	SID363544561	181	57.4	active
Abt1	SID363546484	122	76.1	active
Kifc2	SID363572236	149	123	active
Or51a43	SID363567607	148	69	active
